The structures given here were assigned with low confidence; some may be wrong.
What was measured:
[1] = target: APN (Leucin aminopeptidase, microsomal, EC 3.4.11.2) (Sus scrofa, UniProt P15145); test: IC50 determination against APN after reduction of the prodrugs with DTT; details: read-out: APN (IC 50 [M]); after release (reduction with DTT) of the inhibitors from the prodrugs; pig kidney enzyme, substrate Leu-AMC, pH 7.2, 30° C.
Method: (§1) Process of the Reduction with DTT:
(§2) Same volumes of the 7·10^−2 M solution of the inhibitor in water or DMF and a 0.35 M aqueous DTT-solution (5 equivalents) were agitated 4 hours at RT.
(§3) Subsequently to the reductive treatment of the prodrugs the IC50-values were estimated using the following process:
(§4) Determination of the IC50-Values after Reduction:
Leucin aminopeptidase, microsomal, from pig kidney (EC 3.4.11.2).
Suspension in 3.5 M (NH4)2SO4-solution (Sigma).
Substrate: Leu-AMC, [S]=1.5·10^−4 M (2 Km) in the reaction batch.
Buffer: 40 mM Tris/HCl-buffer, pH 7.2 in the reaction batch. […]
(§5) 60 μl of these inhibitor solutions each or water (standard), were incubated with 80 μl of the according diluted enzymes in buffer for 15 minutes at 30° C. and subsequently 60 μl of the according AMC-substrate in water (total volume 200 μl) were added. The release of the 7-Amino-4-methyl-cumarin was traced continuously over a period of 20 minutes at 30° C. using a fluorence-pladt-reader NOVOstar (BMG Labtechnologies). The enzyme concentration was chosen to give a linear increase of the fluorescence during the measuring period.
The excitation- and emission-wavelengths, respectively, were 390 and 460 nm. […] The turn-over rates (increase of fluorescence/minutes) were plotted against the concentration of the inhibitor and the IC50-values were calculated using the computer program GraFit. […]

Amino acid sequences for entries named in this document (tags omitted).
UniProt P15145, whole entry: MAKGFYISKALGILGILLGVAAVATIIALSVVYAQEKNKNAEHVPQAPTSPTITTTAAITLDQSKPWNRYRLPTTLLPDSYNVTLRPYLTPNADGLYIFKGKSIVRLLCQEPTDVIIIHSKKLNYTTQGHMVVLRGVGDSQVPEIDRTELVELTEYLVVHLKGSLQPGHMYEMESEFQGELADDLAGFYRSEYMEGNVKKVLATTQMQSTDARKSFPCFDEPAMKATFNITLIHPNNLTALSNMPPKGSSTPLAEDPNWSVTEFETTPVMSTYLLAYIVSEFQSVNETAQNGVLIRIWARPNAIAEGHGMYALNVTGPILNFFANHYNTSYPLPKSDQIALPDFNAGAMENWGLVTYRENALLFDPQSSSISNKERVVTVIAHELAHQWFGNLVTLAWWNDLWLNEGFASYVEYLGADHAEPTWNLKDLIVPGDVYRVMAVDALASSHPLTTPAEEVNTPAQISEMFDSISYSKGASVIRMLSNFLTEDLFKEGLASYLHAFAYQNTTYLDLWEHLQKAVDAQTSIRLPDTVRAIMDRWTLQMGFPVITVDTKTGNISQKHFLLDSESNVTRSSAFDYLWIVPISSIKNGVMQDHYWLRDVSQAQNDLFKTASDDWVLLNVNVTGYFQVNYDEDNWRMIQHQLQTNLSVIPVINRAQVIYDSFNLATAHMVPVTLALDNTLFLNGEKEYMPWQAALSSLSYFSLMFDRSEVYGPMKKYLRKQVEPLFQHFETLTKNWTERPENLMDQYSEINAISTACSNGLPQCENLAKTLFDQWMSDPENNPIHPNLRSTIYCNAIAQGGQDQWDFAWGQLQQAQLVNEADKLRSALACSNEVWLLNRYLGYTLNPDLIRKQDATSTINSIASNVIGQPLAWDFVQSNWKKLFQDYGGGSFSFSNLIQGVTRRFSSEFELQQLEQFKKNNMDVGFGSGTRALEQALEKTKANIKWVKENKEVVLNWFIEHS
UniProt P22411, whole entry: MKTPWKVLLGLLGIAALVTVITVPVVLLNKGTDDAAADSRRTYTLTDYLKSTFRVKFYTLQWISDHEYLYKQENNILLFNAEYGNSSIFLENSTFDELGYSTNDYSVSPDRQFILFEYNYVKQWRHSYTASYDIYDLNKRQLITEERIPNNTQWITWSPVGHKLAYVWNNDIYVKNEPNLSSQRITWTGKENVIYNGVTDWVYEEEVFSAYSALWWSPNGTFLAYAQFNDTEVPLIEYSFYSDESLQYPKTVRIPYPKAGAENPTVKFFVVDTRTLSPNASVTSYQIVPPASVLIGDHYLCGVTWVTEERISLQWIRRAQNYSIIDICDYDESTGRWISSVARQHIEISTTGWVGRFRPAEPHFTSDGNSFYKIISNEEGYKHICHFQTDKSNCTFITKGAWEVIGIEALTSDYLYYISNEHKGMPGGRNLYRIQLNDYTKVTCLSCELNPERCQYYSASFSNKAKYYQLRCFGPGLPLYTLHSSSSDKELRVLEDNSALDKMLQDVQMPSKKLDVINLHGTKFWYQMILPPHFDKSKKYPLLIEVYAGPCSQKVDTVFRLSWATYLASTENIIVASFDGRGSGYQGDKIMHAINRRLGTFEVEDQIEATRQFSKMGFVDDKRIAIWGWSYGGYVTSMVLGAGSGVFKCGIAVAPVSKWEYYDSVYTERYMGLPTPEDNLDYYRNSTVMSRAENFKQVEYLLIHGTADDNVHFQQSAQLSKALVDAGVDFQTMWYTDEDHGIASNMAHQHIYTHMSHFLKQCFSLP

[2] = target: Dipeptidyl peptidase IV (EC 3.4.14.5.) (Sus scrofa, UniProt P22411); test: IC50 determination against DP IV after reduction of the prodrugs with DTT; details: read-out: DP IV (IC 50 [M]); after release (reduction with DTT) of the inhibitors from the prodrugs; pig kidney enzyme, substrate Ala-Pro-AMC, pH 7.6, 30° C.
Method: as §1, §2, §3, §4
Dipeptidyl peptidase IV from pig kidney (EC 3.4.14.5.), lyophilisated powder (Sigma).
Substrate: Ala-Pro-AMC, [S]=3·10^−5 M (2 Km) in the reaction batch.
Buffer: 40 mM Tris/HCl-buffer, pH 7.6, I=0.125 in the reaction batch.
By dilution with water 10 to 12 solutions with defined inhibitor concentration were prepared from the reduction batch. These were selected from a relevant concentration range, i.e. between complete inhibition and non-influenced enzyme activity.
as §5, with “period. […]” for “period.”

SMILES: NC(CSSc1ccc(C(=O)NCCCC[C@H](N)C(=O)N2CCSC2)cn1)Cc1ccccc1 (some centres unmarked)
- IC50 [1]: 1.33e-07 M
- IC50 [2]: 1.25e-07 M

Reference: patent US8470855B2, “Dual-use peptidase inhibitors as prodrugs for a therapy of inflammatory and other diseases” (IMTM GmbH, priority 2005, dated 2013)
